PubChem BioAssay AID1259254 – NCATS – 2017
The deposit covers about 59,000 reagents; below is a random part of them. About 1,550 of all reagents (2.6%) were called active. 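G2 share is only a proxy for re-replication; each gene was hit by three separate siRNAs, and active genes were retested.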 Raw values are not corrected between plates. Reagents against one gene are numbered here. Not stated in the record: the amount of reagent.

Purpose: 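Gene knock-downs that lead to re-replication, shown by excess G2 DNA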 (primary screen)
Cell system: human HCT116 colorectal cancer cells
Reagent: single siRNA against human genes
Duration: 3 days
Detection: 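Nuclei stained with Hoechst and imaged; cell-cycle phase assigned by DNA content; G2 share scaled per plate, non-targeting siRNA 0%, GMNN siRNA 100%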
Scale: G2 robust z-score and G2 cells, % of GMNN control: higher = more G2 cells, more excess DNA replication; raw share of cells in G2: higher = larger share of cells with G2 DNA content
Hit rule: 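An siRNA counts as active if its G2 robust z-score lies at least 5 MADs above the screen median; here such calls match roughly 38% of GMNN control or more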

G2 robust z-score	G2 cells, % of GMNN control	raw share of cells in G2 (%)	Outcome	gene	reagent
4.05	31.4	17.1	inactive	PARP2 (poly(ADP-ribose) polymerase 2)	1
-0.305	0.822	5.08	inactive	PARP2 (poly(ADP-ribose) polymerase 2)	2
0.471	6.28	5.34	inactive	PARP2 (poly(ADP-ribose) polymerase 2)	3
-0.833	-2.89	3.85	inactive	NOL4 (nucleolar protein 4)	1
0.604	7.22	6.76	inactive	NOL4 (nucleolar protein 4)	2
0.0532	3.34	4.53	inactive	NOL4 (nucleolar protein 4)	3
-0.832	-2.89	2.72	inactive	ZFP64 (ZFP64 zinc finger protein)	1
-0.763	-2.4	1.95	inactive	ZFP64 (ZFP64 zinc finger protein)	2
-0.515	-0.656	5.61	inactive	ZFP64 (ZFP64 zinc finger protein)	3
-0.753	-2.33	2.77	inactive	INO80D (INO80 complex subunit D)	1
-0.551	-0.907	3.89	inactive	INO80D (INO80 complex subunit D)	2
1.76	15.3	8.26	inactive	INO80D (INO80 complex subunit D)	3
0.0594	3.39	6.14	inactive	PLD1 (phospholipase D1)	1
-1.16	-5.22	2.69	inactive	PLD1 (phospholipase D1)	2
-0.106	2.22	4.88	inactive	PLD1 (phospholipase D1)	3
-0.194	1.6	4.76	inactive	CCDC142 (coiled-coil domain containing 142)	1
1.81	15.7	7.92	inactive	CCDC142 (coiled-coil domain containing 142)	2
-0.799	-2.65	2.08	inactive	CCDC142 (coiled-coil domain containing 142)	3
0.0659	3.43	5.46	inactive	ICAM1 (intercellular adhesion molecule 1)	1
1.83	15.9	10.8	inactive	ICAM1 (intercellular adhesion molecule 1)	2
0.402	5.8	7.89	inactive	ICAM1 (intercellular adhesion molecule 1)	3
-1.21	-5.54	2.81	inactive	ANKRD26 (ankyrin repeat domain 26)	1
0.526	6.67	6.89	inactive	ANKRD26 (ankyrin repeat domain 26)	2
7.32	54.5	23.5	active	ANKRD26 (ankyrin repeat domain 26)	3
-0.461	-0.275	3.67	inactive	COL6A4P2 (collagen type VI alpha 4 pseudogene 2)	1
-0.462	-0.286	3.12	inactive	COL6A4P2 (collagen type VI alpha 4 pseudogene 2)	2
0.992	9.94	6.2	inactive	COL6A4P2 (collagen type VI alpha 4 pseudogene 2)	3
-0.197	1.58	6.04	inactive	MR1 (major histocompatibility complex, class I-related)	1
-0.759	-2.37	3.22	inactive	MR1 (major histocompatibility complex, class I-related)	2
-0.433	-0.0771	3.49	inactive	MR1 (major histocompatibility complex, class I-related)	3
3.52	27.7	13.1	inactive	DCDC2B (doublecortin domain containing 2B)	1
-0.121	2.12	3.57	inactive	DCDC2B (doublecortin domain containing 2B)	2
0.0154	3.08	4.14	inactive	DCDC2B (doublecortin domain containing 2B)	3
-0.697	-1.94	4.88	inactive	KLK10 (kallikrein related peptidase 10)	1
0.422	5.94	7.01	inactive	KLK10 (kallikrein related peptidase 10)	2
-0.111	2.19	4.73	inactive	KLK10 (kallikrein related peptidase 10)	3
1.29	12	10.9	inactive	NXF1 (nuclear RNA export factor 1)	1
5.04	38.4	16.3	active	NXF1 (nuclear RNA export factor 1)	2
0.691	7.83	9.57	inactive	NXF1 (nuclear RNA export factor 1)	3
0.666	7.65	6.61	inactive	TMEM119 (transmembrane protein 119)	1
1.1	10.7	7.93	inactive	TMEM119 (transmembrane protein 119)	2
-0.244	1.25	4.69	inactive	TMEM119 (transmembrane protein 119)	3
-0.173	1.75	5.05	inactive	VLDLR (very low density lipoprotein receptor)	1
-0.0255	2.79	5.3	inactive	VLDLR (very low density lipoprotein receptor)	2
-0.804	-2.69	4.46	inactive	VLDLR (very low density lipoprotein receptor)	3
0.198	4.36	8.34	inactive	TBC1D23 (TBC1 domain family member 23)	1
-0.52	-0.688	4.19	inactive	TBC1D23 (TBC1 domain family member 23)	2
1.17	11.2	9.01	inactive	TBC1D23 (TBC1 domain family member 23)	3
1.39	12.7	8.58	inactive	MYBL1 (MYB proto-oncogene like 1)	1
0.0193	3.1	4.38	inactive	MYBL1 (MYB proto-oncogene like 1)	2
1.04	10.3	6.3	inactive	MYBL1 (MYB proto-oncogene like 1)	3
-0.882	-3.24	2.13	inactive	MYBL1 (MYB proto-oncogene like 1)	4
-1.01	-4.15	3.76	inactive	MYBL1 (MYB proto-oncogene like 1)	5
2.02	17.2	12.3	inactive	MYBL1 (MYB proto-oncogene like 1)	6
-0.153	1.89	7.26	inactive	DUS2 (dihydrouridine synthase 2)	1
-0.0142	2.87	5.47	inactive	DUS2 (dihydrouridine synthase 2)	2
0.995	9.97	8.49	inactive	DUS2 (dihydrouridine synthase 2)	3
-0.921	-3.51	4.28	inactive	UPRT (uracil phosphoribosyltransferase homolog)	1
-0.668	-1.73	4.07	inactive	UPRT (uracil phosphoribosyltransferase homolog)	2
-0.605	-1.29	4.16	inactive	UPRT (uracil phosphoribosyltransferase homolog)	3
0.356	5.47	8.44	inactive	DCHS2 (dachsous cadherin-related 2)	1
0.547	6.82	6.76	inactive	DCHS2 (dachsous cadherin-related 2)	2
-0.457	-0.247	3.71	inactive	DCHS2 (dachsous cadherin-related 2)	3
0.108	3.73	6.86	inactive	C1RL (complement C1r subcomponent like)	1
1.87	16.1	10.6	inactive	C1RL (complement C1r subcomponent like)	2
-0.831	-2.88	2.83	inactive	C1RL (complement C1r subcomponent like)	3
2.02	17.2	13.8	inactive	KRT76 (keratin 76)	1
-1.02	-4.2	2.69	inactive	KRT76 (keratin 76)	2
-0.466	-0.313	3.68	inactive	KRT76 (keratin 76)	3
-0.827	-2.85	2.54	inactive	MAMDC2 (MAM domain containing 2)	1
0.199	4.37	4.63	inactive	MAMDC2 (MAM domain containing 2)	2
-1.13	-4.97	1.61	inactive	MAMDC2 (MAM domain containing 2)	3
2.72	22.1	13.5	inactive	OTUB1 (OTU deubiquitinase, ubiquitin aldehyde binding 1)	1
-1.07	-4.55	2.81	inactive	OTUB1 (OTU deubiquitinase, ubiquitin aldehyde binding 1)	2
-0.522	-0.702	6.12	inactive	OTUB1 (OTU deubiquitinase, ubiquitin aldehyde binding 1)	3
-0.112	2.18	4.73	inactive	PRAMEF10 (PRAME family member 10)	1
6.25	46.9	23.8	active	PRAMEF10 (PRAME family member 10)	2
-0.565	-1.01	3.78	inactive	PRAMEF10 (PRAME family member 10)	3
-0.549	-0.893	4.63	inactive	STAG2 (STAG2 cohesin complex component)	1
-1.07	-4.56	2.25	inactive	STAG2 (STAG2 cohesin complex component)	2
0.272	4.88	5	inactive	STAG2 (STAG2 cohesin complex component)	3
-0.666	-1.72	5.1	inactive	CCL21 (C-C motif chemokine ligand 21)	1
5.11	38.9	17.9	active	CCL21 (C-C motif chemokine ligand 21)	2
-0.295	0.892	4.25	inactive	CCL21 (C-C motif chemokine ligand 21)	3
0.591	7.12	7.26	inactive	NDUFAF7 (NADH:ubiquinone oxidoreductase complex assembly factor 7)	1
-0.176	1.73	4.85	inactive	NDUFAF7 (NADH:ubiquinone oxidoreductase complex assembly factor 7)	2
1.3	12.1	7	inactive	NDUFAF7 (NADH:ubiquinone oxidoreductase complex assembly factor 7)	3
